The text below walks through data of article PMC2323314.

This assay deals with GST-Ataxin-1[82Q] with S776A mutation (human). Description: pull-down; GST co-affinity purification (co-AP): lysates of HEK293T cells transfected with the GST-Ataxin-1 construct and Ataxin-2 run through glutathione conjugated beads; blots stained with anti-GST, anti-Myc or for dAtx2.

These are yes or no findings as the source states them, for the method shown. In cells and extracts the contact can be indirect. Binding can be weak; no strength is given.

B1: Drosophila Ataxin-2 (dAtx2) (protein, UniProt Q8SWR8 1-1084)
chain: MNNNSKRKTRPTGGGASGGISRYNSNDNSLRPTNNKAGAGGGNGGAAVRPSAQGVYNNTFFMHSATALVGSVVEVRLRSGNIYEGVFRTFSGNFDIALELPACIKSKNLPEEGKVPKHIIFPADTVVTIVAKDFDSQYATAGAFQTDGAISDKCNGARPDEKELEPWDSGANGDIDIELDSAANGWDPNEMFRKNENTFGVTSTFDDSLASYTVPLDKGDSLEFKEAEAKAEKLAAEIENNPTCRDRLDLENGDEEALFAAVERPSTEQDQRGDRGDRERNDRDREREERDRDRDRDRGNKPRGAGDFQLRETMSSDRYITKQTRSITGPQLSHVGMSSQGSGRDRDTRGDGSMMMQSGGGSGQGGSTQSTAALMLAGGLKGVGPAPSANASADSSSKYSGGSMVKRKTVPQGGKVMRNNVPTGGSNVSVSQGGNGNSVGQNKGGYQPSMGMPSQYSYQGNSQIMHGSSQYRNQSHMGGANKLNGDSNANTNKPLPQRQMRQYQGSQSNSSLNYGGEPQSLGKPVHGSHGGHPGQNSNSPPLQTAGPQQQQQQQQQQQQQQQQQQPPQQQQHQNIQPQGQNTQPARQVRTRDNQMQELRQFGQDFQLAPSNTSPPQQQQQQQQQQQQHQVQQQQQRALQQSASPPQQQQQQQQQQQHVVLHQVPQTHLHQAALSQPHYVPQQQPQQAPLPQQQHVPHHMQQKAQQQQLVETQHQHVQKQHQSQPQVQQPPPQLLQDPSQQPLPIYHTMPPPQTSPVVVTSPVLLEQPPPQPMPVVQQQQTQQLATPKPEVSPAPPSSNTTTPTGIASTPTAGVIASAGSEKTTPAAPTPTSNSATVPTGTAATAGGATGTTPVVKKHVLNPSAKPFTPRGPSTPNPSRPHTPQTPVPMTNIYTTTGGHVPPAANQPIYVMQPQHPFPPQTHPQAGQPPRLRRSNYPPMAASQMHVSASAATGQPLITAGPIPQFIQYGHAPHQQQFQSHTYAPMQMRVYPDQPQQLQFMTQTPQSTTPSPGQPHQQFHPPPQPSPAGGGPQPAFTPPTQAATYQLMCVHPQSLLANHYFPPPTPQHPQQNQQQYQIVMQQHQPQ
In the case of B1, the binding entry was “binds”.
